This passage reports binding signal results from publication PMC5996148.

Several values for one entry are separate records, joined by “and”; a condition that tells them apart may be missing. Equal entries are not always repeated. The list shows a part of the results.

Test in all cases: protein microarray (ProtoArray v5.0), streptavidin-Alexa Fluor 647
Details in all cases: 3'-biotin; 20 mM Tris (pH 7.5), 5 mM MgCl2, 100 mM KCl, 0.1% Tween-20, A/T-rich and random oligonucleotide blockers; temperature not stated; high values mean tight binding

In test [1] the test system is MDP-1 (human).
The test system of test [2] is MED21 (human).
For test [3], the system named is MED28 (human).
Test [4] has as its system MEF2B (human).
Test [5] deals with MEIS3 (human).
In test [6] the test system is MFGE8 (human).
For test [7], the system named is MGC10334 (human).
Test [8] concerns MGC10600 (human).
Test [9] deals with MGC10955 (human).
Test [10] deals with MGC13057 (human).

As to “GGTGACAGGGGTATGGGGAGGGG [G4-2 biotinylated (Ct1)]”, the binding signal in test [1] was -0.392 z-score and -0.399 z-score; in test [2] it was -0.395 z-score; in test [3] it was -0.386 z-score; in [4], -0.373 z-score; in test [5], -0.397 z-score; in test [6] it was -0.384 z-score. Further, the binding signal was -0.373 z-score in [7], -0.376 z-score in test [8], -0.368 z-score in test [9] and -0.389 z-score in test [10].
